The supplement of paper PMC10849652
Some of the results follow.

Amino acid sequences for entries named in this document (tags omitted). A change or cut given only in a name is not applied to a line headed by its entry.
UniProt Q9BUV8: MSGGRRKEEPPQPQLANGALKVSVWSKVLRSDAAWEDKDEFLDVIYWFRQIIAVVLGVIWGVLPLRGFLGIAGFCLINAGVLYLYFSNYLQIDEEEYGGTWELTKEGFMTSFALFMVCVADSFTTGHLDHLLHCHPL
UniProt P51151: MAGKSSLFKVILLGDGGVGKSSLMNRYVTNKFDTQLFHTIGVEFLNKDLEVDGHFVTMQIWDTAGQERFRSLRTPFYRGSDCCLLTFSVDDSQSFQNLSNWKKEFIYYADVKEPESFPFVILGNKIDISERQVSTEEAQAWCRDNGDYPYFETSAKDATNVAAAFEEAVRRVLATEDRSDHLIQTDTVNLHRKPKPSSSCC
UniProt Q3YEC7: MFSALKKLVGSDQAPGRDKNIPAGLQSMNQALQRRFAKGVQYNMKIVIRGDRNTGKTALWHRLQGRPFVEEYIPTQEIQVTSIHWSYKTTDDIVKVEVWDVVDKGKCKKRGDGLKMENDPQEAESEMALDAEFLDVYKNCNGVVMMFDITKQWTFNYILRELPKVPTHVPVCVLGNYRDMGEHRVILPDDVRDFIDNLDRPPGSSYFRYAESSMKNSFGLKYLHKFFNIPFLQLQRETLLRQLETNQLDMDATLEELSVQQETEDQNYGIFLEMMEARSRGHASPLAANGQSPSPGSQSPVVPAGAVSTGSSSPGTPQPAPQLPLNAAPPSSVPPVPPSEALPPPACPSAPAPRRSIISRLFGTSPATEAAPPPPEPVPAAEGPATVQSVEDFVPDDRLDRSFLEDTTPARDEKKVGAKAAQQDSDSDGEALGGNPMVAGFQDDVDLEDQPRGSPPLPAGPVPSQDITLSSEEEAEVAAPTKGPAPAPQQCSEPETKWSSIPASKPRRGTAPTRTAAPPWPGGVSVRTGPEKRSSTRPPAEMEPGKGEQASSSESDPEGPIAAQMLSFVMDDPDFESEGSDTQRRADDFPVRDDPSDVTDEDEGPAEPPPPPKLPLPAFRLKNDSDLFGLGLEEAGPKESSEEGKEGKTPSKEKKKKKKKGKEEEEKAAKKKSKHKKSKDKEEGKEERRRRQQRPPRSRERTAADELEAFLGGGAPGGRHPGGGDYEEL
UniProt P78406: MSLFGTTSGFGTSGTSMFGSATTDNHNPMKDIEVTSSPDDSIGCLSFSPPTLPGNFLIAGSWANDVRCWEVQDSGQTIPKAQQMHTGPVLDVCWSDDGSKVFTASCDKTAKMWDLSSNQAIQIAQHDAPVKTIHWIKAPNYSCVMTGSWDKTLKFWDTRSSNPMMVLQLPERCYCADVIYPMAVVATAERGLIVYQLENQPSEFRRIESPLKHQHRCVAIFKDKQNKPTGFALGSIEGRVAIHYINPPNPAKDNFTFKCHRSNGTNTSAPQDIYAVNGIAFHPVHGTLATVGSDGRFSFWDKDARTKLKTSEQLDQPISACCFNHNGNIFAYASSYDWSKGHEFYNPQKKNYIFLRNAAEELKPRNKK
UniProt O15315: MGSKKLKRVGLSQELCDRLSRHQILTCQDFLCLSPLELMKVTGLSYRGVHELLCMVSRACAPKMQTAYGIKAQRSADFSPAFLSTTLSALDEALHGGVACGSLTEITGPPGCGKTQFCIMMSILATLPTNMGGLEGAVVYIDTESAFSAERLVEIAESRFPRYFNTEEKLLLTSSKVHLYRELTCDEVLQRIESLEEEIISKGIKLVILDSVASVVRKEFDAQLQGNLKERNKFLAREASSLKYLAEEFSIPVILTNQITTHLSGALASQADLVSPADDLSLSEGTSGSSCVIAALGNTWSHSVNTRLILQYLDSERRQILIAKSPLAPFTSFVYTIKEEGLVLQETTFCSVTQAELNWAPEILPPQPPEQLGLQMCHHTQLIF
UniProt Q9H6Z4: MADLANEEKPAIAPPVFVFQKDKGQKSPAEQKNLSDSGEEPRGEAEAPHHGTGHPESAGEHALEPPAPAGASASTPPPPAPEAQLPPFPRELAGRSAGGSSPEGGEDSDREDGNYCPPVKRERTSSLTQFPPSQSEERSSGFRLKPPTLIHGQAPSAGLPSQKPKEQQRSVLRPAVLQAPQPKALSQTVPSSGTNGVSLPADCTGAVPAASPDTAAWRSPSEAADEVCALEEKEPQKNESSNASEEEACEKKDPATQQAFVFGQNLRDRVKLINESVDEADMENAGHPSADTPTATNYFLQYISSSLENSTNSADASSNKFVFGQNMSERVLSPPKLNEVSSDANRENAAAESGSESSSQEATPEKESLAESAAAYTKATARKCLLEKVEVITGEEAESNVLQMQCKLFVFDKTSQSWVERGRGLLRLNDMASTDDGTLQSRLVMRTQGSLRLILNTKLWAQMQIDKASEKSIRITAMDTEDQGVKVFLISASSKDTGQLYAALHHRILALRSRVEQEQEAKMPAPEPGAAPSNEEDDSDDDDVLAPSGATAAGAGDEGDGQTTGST
UniProt Q15771: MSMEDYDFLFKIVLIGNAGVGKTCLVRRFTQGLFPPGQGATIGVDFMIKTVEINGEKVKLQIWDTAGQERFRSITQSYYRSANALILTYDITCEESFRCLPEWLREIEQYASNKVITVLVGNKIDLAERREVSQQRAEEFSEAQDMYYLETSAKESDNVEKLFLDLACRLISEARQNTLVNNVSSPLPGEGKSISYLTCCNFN
UniProt Q9Y6I8: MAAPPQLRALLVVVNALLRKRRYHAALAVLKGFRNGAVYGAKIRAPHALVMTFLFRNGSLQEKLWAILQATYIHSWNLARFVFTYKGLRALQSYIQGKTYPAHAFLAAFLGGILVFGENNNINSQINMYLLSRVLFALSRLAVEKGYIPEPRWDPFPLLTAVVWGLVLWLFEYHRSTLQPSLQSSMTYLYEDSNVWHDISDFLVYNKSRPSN
UniProt Q8WZA2: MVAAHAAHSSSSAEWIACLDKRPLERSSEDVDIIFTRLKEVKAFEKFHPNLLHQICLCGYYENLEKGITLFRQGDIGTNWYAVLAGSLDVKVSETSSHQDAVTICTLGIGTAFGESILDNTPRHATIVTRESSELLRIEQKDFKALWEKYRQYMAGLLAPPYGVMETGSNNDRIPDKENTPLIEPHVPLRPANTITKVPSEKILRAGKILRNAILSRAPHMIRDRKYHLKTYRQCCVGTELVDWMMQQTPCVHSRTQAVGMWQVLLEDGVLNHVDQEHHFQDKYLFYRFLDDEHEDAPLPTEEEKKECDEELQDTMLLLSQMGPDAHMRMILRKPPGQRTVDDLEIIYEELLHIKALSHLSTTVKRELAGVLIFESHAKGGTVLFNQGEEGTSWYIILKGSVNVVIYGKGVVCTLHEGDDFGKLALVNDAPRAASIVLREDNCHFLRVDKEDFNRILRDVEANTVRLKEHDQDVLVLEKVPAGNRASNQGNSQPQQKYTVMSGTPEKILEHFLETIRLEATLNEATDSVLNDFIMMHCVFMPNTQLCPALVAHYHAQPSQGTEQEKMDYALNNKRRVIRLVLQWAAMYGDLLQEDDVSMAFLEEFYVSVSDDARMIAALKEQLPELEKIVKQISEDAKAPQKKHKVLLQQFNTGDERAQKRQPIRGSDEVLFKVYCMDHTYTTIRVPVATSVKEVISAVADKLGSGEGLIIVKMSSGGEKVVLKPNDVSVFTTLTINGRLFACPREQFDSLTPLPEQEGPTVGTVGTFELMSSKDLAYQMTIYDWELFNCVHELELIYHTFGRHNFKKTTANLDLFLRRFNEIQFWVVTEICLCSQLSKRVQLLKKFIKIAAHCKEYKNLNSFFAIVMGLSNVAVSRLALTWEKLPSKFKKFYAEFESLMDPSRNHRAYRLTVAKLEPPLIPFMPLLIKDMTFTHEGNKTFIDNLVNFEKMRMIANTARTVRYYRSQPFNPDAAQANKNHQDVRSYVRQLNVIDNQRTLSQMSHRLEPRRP
UniProt Q96C36: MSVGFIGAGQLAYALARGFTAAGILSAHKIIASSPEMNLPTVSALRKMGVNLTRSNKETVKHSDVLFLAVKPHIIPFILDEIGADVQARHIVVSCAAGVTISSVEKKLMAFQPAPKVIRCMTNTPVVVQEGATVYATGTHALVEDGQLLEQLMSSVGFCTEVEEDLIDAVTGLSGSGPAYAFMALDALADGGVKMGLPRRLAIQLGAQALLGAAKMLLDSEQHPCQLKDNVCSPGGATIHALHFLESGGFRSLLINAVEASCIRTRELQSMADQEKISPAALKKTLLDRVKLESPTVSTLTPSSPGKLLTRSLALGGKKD
UniProt Q8WU10: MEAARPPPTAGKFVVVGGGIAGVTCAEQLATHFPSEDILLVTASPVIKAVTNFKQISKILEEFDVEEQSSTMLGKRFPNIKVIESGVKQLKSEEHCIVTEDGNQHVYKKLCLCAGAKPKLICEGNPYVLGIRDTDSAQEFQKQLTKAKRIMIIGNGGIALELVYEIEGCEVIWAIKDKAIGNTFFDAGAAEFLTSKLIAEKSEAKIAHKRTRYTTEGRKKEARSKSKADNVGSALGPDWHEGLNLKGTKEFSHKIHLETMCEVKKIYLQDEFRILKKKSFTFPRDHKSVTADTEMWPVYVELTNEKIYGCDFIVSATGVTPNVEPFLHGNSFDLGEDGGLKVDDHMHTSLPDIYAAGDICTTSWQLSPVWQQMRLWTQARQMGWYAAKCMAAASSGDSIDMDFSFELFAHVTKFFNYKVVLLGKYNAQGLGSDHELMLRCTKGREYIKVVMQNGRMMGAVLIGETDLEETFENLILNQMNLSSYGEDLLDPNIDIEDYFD
UniProt P46060: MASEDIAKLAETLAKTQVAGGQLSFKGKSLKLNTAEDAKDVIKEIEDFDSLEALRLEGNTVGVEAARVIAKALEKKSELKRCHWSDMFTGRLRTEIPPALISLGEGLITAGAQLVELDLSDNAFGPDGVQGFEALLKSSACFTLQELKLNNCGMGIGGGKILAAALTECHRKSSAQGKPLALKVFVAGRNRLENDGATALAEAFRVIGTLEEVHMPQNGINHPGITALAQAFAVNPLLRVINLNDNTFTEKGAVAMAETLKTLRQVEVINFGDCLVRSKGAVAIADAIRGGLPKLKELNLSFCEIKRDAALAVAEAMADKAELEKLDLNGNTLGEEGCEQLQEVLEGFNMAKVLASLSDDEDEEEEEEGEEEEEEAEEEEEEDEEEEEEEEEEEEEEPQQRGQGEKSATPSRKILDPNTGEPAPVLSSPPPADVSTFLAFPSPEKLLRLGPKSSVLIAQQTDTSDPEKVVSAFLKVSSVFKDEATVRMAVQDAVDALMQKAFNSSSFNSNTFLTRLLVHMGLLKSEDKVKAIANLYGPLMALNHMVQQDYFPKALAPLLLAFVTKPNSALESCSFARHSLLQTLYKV
UniProt Q6ZRP7: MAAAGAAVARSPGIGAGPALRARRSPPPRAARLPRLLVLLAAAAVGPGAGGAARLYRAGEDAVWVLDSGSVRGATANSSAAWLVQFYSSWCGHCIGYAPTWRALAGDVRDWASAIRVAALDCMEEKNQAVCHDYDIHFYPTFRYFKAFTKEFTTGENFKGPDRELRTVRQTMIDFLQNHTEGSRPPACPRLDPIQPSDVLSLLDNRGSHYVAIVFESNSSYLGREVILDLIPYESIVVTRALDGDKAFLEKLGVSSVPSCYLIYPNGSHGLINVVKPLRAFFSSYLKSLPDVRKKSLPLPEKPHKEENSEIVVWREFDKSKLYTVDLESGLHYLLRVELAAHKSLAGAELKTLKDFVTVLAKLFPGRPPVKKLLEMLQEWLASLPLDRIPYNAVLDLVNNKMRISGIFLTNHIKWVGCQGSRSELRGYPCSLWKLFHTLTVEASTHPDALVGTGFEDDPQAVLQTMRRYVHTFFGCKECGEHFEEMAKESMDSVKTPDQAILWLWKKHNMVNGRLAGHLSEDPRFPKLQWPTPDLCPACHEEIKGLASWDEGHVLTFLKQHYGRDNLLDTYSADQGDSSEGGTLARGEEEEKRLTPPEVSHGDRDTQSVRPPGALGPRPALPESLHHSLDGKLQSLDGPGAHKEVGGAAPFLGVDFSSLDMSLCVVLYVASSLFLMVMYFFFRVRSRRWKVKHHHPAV
UniProt Q9NP72: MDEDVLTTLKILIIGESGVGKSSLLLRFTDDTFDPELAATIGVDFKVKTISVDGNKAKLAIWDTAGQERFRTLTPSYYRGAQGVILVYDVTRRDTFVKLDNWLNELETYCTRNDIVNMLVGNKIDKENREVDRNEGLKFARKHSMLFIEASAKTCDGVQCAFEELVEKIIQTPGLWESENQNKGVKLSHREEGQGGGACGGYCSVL
UniProt Q15907: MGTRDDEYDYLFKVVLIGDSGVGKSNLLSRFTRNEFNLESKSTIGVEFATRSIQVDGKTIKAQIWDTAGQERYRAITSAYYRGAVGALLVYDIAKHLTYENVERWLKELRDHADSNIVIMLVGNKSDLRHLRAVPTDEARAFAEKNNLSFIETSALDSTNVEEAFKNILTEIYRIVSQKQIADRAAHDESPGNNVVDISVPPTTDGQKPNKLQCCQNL
UniProt Q9UL25: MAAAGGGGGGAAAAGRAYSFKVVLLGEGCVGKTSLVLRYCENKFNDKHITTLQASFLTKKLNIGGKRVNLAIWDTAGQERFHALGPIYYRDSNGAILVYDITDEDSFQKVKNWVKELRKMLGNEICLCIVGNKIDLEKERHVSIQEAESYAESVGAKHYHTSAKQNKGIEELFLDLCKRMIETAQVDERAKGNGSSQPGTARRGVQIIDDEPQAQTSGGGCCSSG

Experiments:
Assay in all cases: log2 fold change, soluble protein after heating vs DMSO (PISA); higher = thermal stabilisation; K562 lysate, 10 uM; active = over 0.2 and 3.5 SD of the protein, either way, in both replicates (recomputed)
[1] = compound: C#Cc1cccc(Nc2ncnc3cc(OCCOC)c(OCCOC)cc23)c1 [erlotinib]
Procedure, shortened: (§1)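 Values give the log-two fold change in thermal stability against solvent controls, from duplicates. Crude K562 extract at 1 mg/mL protein, made by dounce homogenisation in PBS pH 7.4 with 1 mM MgCl2, was treated with 10 μM compound for 30 min. After 3 min heating across 48°C-58°C, aliquots were pooled, adjusted to 0.5% NP-40 at 4°C and centrifuged at 21,000xg for 90 min. The supernatant was measured by TMTpro 16plex LC-MS/MS with channel sums equalised.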

[2] = compound: C/C(=N\NC(=O)C1=CC(=CC=C1)S(=O)(=O)N2CCOCC2)/C3=C(C=CC(=C3)Cl)O
Procedure, shortened: as §1

[3] = compound: C1=CC(=CC=C1C2=NC3=C(N2)C=C(C=C3)C(=O)N)OC4=CC=C(C=C4)Cl
Procedure, shortened: as §1

[4] = compound: C1=CC2=C(C=CC(=C2)/C=C\3/C(=O)NC(=NCC4=CC=CS4)S3)N=C1
Procedure, shortened: as §1

[5] = compound: C1=CC2=NC=CN=C2C=C1/C=C/3\C(=O)NC(=O)S3
Procedure, shortened: as §1

[6] = compound: C1=CC=C2C(=C1)C3=NNC4=CC=CC(=C43)C2=O
Procedure, shortened: as §1

[7] = compound: C1CCN(C1)C(=O)NC2=CC=CC(=C2)NC3=NC=C(C(=N3)NCCC4=CN=CN4)Br
Procedure, shortened: as §1

[8] = compound: C1CN(CCC1(CC2=CC=C(C=C2)Cl)N)C3=NC=NC4=C3C=CN4
Procedure, shortened: as §1

[9] = compound: C=CC(=O)N1CCC[C@@H](n2nc(-c3ccc(Oc4ccccc4)cc3)c3c(N)ncnc32)C1 [ibrutinib]
Procedure, shortened: as §1

[10] = compound: CC(=O)c1cnc2ccc(-c3cc(Cl)c(O)c(Cl)c3)nc2c1N[C@H]1CC[C@H](CN(C)C)CC1
Procedure, shortened: as §1

[11] = compound: CC(C)C1=C2N=C(C=C(N2N=C1)NCC3=CC=CC=C3)NCCCCCCN
Procedure, shortened: as §1

[12] = compound: CC1=C(C(CC(=O)N1)C2=CC=C(C=C2)C(F)(F)F)C(=O)NC3=C(C=C4C(=C3)C=NN4)F
Procedure, shortened: as §1

[13] = compound: CC1=C(C2=C(C=C1)C(=O)C3=CC=CC=C3N2CCCN)C
Procedure, shortened: as §1

[14] = compound: CC1=CC=C(C=C1)SC2=C3C=C(SC3=CN=C2)C(=O)N
Procedure, shortened: as §1

[15] = compound: C1=CC=C(C=C1)C2=NC(=C(N2)C3=CC=NC=C3)C4=CC(=C(C=C4)Cl)O
Procedure, shortened: as §1

[16] = compound: C1COCCN1CCN2C3=CC=CC=C3N=C2NC(=O)C4=CC(=CC=C4)[N+](=O)[O-] [IRAK-1-4 Inhibitor I]
Procedure, shortened: as §1

[17] = compound: CC(C)(C)Cn1c(N)nc2ccc(-c3[nH]c(C(C)(C)C)nc3-c3ccc(F)cc3)nc21 [ralimetinib]
Procedure, shortened: as §1

[18] = compound: CC(C)(O)CC(=O)NCCn1ccc2ncnc(Nc3ccc(Oc4cccc(C(F)(F)F)c4)c(Cl)c3)c21
Procedure, shortened: as §1

[19] = compound: CC1=C(C=C(C=C1)NC(=O)C2=CC(=CC=C2)C(C)(C)C#N)NC3=CC4=C(C=C3)N=CN(C4=O)C
Procedure, shortened: as §1

[20] = compound: CC1=C(C=C(C=C1)NC(=O)C2=CC(=CC=C2)N(C)C)NC(=O)C3=CC=C(C=C3)O
Procedure, shortened: as §1

Measured: log2 fold change

RAB5IF isoform 5 (UniProt Q9BUV8)
inactive: [1] 0.193 | [2] 0.021 | [3] 0.082 | [4] 0.001 | [5] -0.052 | [6] -0.036 | [7] -0.065 | [8] 0.034 | [9] -0.039 | [10] -0.029 | [11] -0.163 | [12] 0.086 | [13] -0.165 | [14] 0.073

RAB9A (UniProt P51151)
inactive: [1] 0.012 | [2] -0.07 | [3] -0.037 | [4] -0.003 | [5] -0.029 | [15] -0.013 | [6] 0.062 | [7] 0 | [8] 0.009 | [16] 0.026 | [9] 0.026 | [10] 0.009 | [17] -0.021 | [18] 0.006 | [11] -0.031 | [12] 0.096 | [13] 0.029 | [19] -0.053 | [20] -0.015 | [14] 0.017

RABL6 (UniProt Q3YEC7)
inactive: [1] -0.034 | [2] 0.03 | [3] 0.011 | [4] -0.017 | [5] -0.017 | [15] 0.014 | [6] 0.011 | [7] -0.011 | [8] 0.019 | [16] -0.014 | [9] 0.01 | [10] -0.032 | [17] 0.022 | [18] -0.016 | [11] -0.014 | [12] -0.001 | [13] 0.001 | [19] 0.019 | [20] 0.005 | [14] -0.001

RAE1 (UniProt P78406)
inactive: [1] 0.045 | [2] -0.036 | [3] 0.014 | [4] 0.046 | [5] 0.012 | [15] -0.021 | [6] -0.007 | [7] -0.019 | [8] 0.033 | [16] -0.024 | [9] -0.033 | [10] -0.01 | [17] 0.007 | [18] 0.185 | [11] -0.007 | [12] -0.022 | [13] 0.012 | [19] -0.064 | [20] 0.011 | [14] 0.023

RAD51B (UniProt O15315)
inactive: [1] 0.054 | [2] -0.191 | [3] -0.005 | [4] 0.089 | [5] 0.176 | [15] -0.079 | [6] 0.054 | [7] 0.014 | [8] 0.11 | [16] -0.004 | [9] -0.021 | [17] 0.006 | [18] 0.156 | [11] 0.197 | [12] 0.084 | [13] -0.015 | [19] 0.306 | [20] -0.058

RANBP3 (UniProt Q9H6Z4)
inactive: [1] -0.013 | [2] -0.031 | [3] 0.02 | [4] -0.028 | [5] -0.012 | [15] 0.01 | [6] -0.008 | [7] -0.004 | [8] 0.017 | [16] 0.023 | [9] 0.003 | [10] 0.001 | [17] 0.001 | [18] -0.012 | [11] -0.028 | [12] -0.011 | [13] -0.054 | [19] 0.029 | [20] -0.005 | [14] -0.02

RAB30 (UniProt Q15771)
inactive: [1] 0.07 | [2] -0.162 | [3] -0.035 | [4] -0.072 | [5] -0.087 | [6] -0.034 | [7] -0.044 | [8] -0.076 | [9] 0.021 | [11] -0.023 | [13] -0.032 | [19] -0.05

PXMP4 (UniProt Q9Y6I8)
inactive: [1] 0.024 | [2] 0.068 | [3] 0.084 | [4] -0.053 | [5] 0.013 | [15] 0.053 | [6] -0.038 | [7] 0.043 | [8] 0.022 | [16] 0.016 | [9] -0.022 | [10] 0 | [17] 0.012 | [18] -0.076 | [11] -0.18 | [12] -0.008 | [13] 0.066 | [19] 0.234 | [20] -0.007 | [14] 0.023

RACK1 (UniProt P63244)
inactive: [1] 0.003 | [2] 0.05 | [3] -0.011 | [4] -0.013 | [5] -0.003 | [15] 0.012 | [6] 0.001 | [7] -0.005 | [8] 0.003 | [16] 0.002 | [9] 0.003 | [10] 0.012 | [17] 0.004 | [18] 0.032 | [11] -0.002 | [12] -0.019 | [13] 0.011 | [19] -0.015 | [20] -0.006 | [14] 0.04

RAPGEF4 (UniProt Q8WZA2)
inactive: [1] 0.181 | [2] 0.057 | [3] 0.049 | [4] -0.016 | [5] -0.019 | [15] -0.092 | [6] -0.195 | [7] -0.043 | [8] 0.12 | [16] 0.184 | [9] -0.026 | [10] -0.129 | [17] -0.001 | [18] -0.328 | [11] 0.044 | [13] 0.046 | [19] 0.442 | [20] -0.004 | [14] -0.166

PYCR2 (UniProt Q96C36)
inactive: [1] -0.013 | [2] 0.014 | [3] 0.011 | [4] -0.005 | [5] -0.013 | [15] 0.003 | [6] -0.04 | [7] 0.007 | [8] 0.01 | [16] 0.031 | [9] 0.012 | [10] 0.002 | [17] -0.007 | [18] -0.032 | [11] -0.007 | [12] -0.026 | [13] 0.001 | [19] 0.013 | [20] -0.017 | [14] -0.016

PYROXD1 (UniProt Q8WU10)
inactive: [1] 0.077 | [2] -0.108 | [3] 0.018 | [4] 0.002 | [5] -0.034 | [15] -0.098 | [6] -0.062 | [7] -0.003 | [8] 0.176 | [16] 0.07 | [9] -0.02 | [10] -0.148 | [17] 0.032 | [18] 0.069 | [11] 0.029 | [12] 0.039 | [13] -0.007 | [19] -0.053 | [20] -0.015 | [14] 0.035

RANGAP1 (UniProt P46060)
inactive: [1] 0.014 | [2] -0.005 | [3] -0.011 | [4] 0.003 | [5] 0.005 | [15] 0.008 | [6] 0.022 | [7] 0 | [8] -0.008 | [16] 0.001 | [9] -0.013 | [10] -0.016 | [17] -0.011 | [18] 0.008 | [11] -0.004 | [12] -0.013 | [13] 0.006 | [19] -0.002 | [20] 0.005 | [14] 0

QSOX2 (UniProt Q6ZRP7)
inactive: [1] -0.016 | [2] -0.015 | [3] -0.019 | [4] 0.025 | [5] 0.042 | [15] -0.026 | [6] -0.064 | [7] -0.034 | [8] 0.014 | [16] 0.023 | [9] 0.04 | [10] 0.001 | [17] 0.016 | [18] -0.046 | [11] -0.028 | [12] 0.043 | [13] 0.005 | [19] 0.04 | [20] -0.008 | [14] 0.009

RAB18 (UniProt Q9NP72)
inactive: [1] -0.116 | [2] 0.002 | [3] -0.083 | [4] -0.005 | [5] 0.059 | [6] -0.009 | [7] -0.004 | [8] -0.071 | [9] -0.004 | [10] 0.023 | [11] -0.118 | [12] 0.028 | [13] 0.017 | [19] -0.036 | [14] 0.102

Retrieved one by one from the entries so far, 2 records:
RANGAP1 (UniProt P46060)
inactive: [1] 0.014 | [2] -0.005 | [3] -0.011 | [4] 0.003 | [5] 0.005 | [15] 0.008 | [6] 0.022 | [7] 0 | [8] -0.008 | [16] 0.001 | [9] -0.013 | [10] -0.016 | [17] -0.011 | [18] 0.008 | [11] -0.004 | [12] -0.013 | [13] 0.006 | [19] -0.002 | [20] 0.005 | [14] 0

PYROXD1 (UniProt Q8WU10)
inactive: [1] 0.077 | [2] -0.108 | [3] 0.018 | [4] 0.002 | [5] -0.034 | [15] -0.098 | [6] -0.062 | [7] -0.003 | [8] 0.176 | [16] 0.07 | [9] -0.02 | [10] -0.148 | [17] 0.032 | [18] 0.069 | [11] 0.029 | [12] 0.039 | [13] -0.007 | [19] -0.053 | [20] -0.015 | [14] 0.035

The list continues:

RAB11B (UniProt Q15907)
inactive: [1] 0.012 | [2] 0.003 | [3] 0.017 | [4] 0.005 | [5] 0.013 | [15] -0.018 | [6] -0.045 | [7] -0.016 | [8] -0.004 | [16] 0.012 | [9] 0.085 | [10] 0.006 | [17] -0.031 | [18] -0.036 | [11] 0.007 | [12] 0.002 | [13] 0.006 | [19] -0.003 | [20] 0.028 | [14] -0.023

RAB21 (UniProt Q9UL25)
inactive: [1] 0 | [2] -0.008 | [3] 0.015 | [4] 0.02 | [5] 0.02 | [15] -0.028 | [6] -0.034 | [7] 0.026 | [8] 0.012 | [16] 0.045 | [9] 0.026 | [10] -0.004 | [17] 0.057 | [18] -0.02 | [11] -0.002 | [12] 0.019 | [13] 0.021 | [19] -0.023 | [20] -0.002 | [14] 0.015
